Measurements as given in PubChem BioAssay AID720504 (National Center for Advancing Translational Sciences (NCATS), 2013).
Among all 360,000 compounds or so, about 10,000 (2.8%) were called active. The inconclusive results got no clear call from the source; some entries with a clear call stand among them for comparison. The call rests on the fitted dose curve; in most records, active means well fitted inhibition curve with a large enough effect; inconclusive means small, poorly fitted or top-dose-only effect; inactive means flat fitted curve, though single readings scatter. Potencies of inconclusive entries are doubtful fits and often do not repeat.
Further: nearly all actives have a fitted effect of over 65% in size.
On the % scale 0 is the no-effect control and ±100 the full control effect; potency means the concentration at half of the fitted maximal effect.
Wherever max response, negative = inhibition is given: series mostly up to about 57 µM.

Sequences of proteins named here, by UniProt entry; tags and fusion partners are left off.
UniProt P53350, whole entry, looked up: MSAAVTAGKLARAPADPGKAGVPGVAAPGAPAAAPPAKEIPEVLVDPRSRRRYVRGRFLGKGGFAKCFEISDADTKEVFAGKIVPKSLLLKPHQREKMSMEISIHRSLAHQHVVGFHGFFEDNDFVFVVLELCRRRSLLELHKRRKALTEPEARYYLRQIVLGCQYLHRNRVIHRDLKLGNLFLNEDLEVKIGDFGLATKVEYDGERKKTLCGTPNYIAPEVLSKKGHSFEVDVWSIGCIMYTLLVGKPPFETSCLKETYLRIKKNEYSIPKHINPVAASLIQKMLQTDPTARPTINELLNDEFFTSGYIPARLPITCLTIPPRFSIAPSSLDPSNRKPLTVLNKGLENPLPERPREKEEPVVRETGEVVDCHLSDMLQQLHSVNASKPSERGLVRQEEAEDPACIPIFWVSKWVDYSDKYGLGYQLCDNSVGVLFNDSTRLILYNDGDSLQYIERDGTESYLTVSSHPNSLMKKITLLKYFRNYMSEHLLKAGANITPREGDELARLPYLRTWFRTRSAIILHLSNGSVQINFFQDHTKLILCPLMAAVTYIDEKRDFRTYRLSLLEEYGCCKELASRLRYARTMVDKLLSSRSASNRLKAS

What follows are compounds tested against Serine/threonine-protein kinase PLK1 (Homo sapiens) (UniProt P53350) (assay: qHTS for Inhibitors of PLK1-PDB (polo-like kinase 1 - polo-box domain): Primary Screen). Conditions: Plk1 PBD binding of FITC phosphopeptide, fluorescence polarization.
For `Cc1ccccc1OCc1nnc(SCc2cc(=O)[nH]c3ccccc23)n1-c1ccccc1`, the max response, negative = inhibition was inactive: -8.65%. With `C=CCn1c(SCc2n[nH]c(=S)n2-c2ccccc2)nnc1-c1ccccc1` the max response, negative = inhibition was inactive: 1.55%. With `O=C(CSc1nnc(-c2ccccn2)o1)Nc1ccccc1C(F)(F)F` the max response, negative = inhibition was inactive: -28.4%. In the case of `NC(=O)CCC(C(=O)O)N1C(=O)c2ccc(O)cc2C1=O` (stereo not drawn), the Potency is reported as inconclusive: 26.7 µM [inhibitor, single point]. In the case of `CCc1nnc(NC(=O)c2nc(S(=O)(=O)Cc3ccc(C)cc3)ncc2Cl)s1`, the Potency is reported as active: 23.8 µM. With `CCOc1ccccc1N1CCN(c2ncnc3scc(-c4ccc(OC)cc4)c23)CC1` the max response, negative = inhibition was inactive: 2.81%. In the case of `Cc1ccc(C(=O)c2cc([N+](=O)[O-])ccc2N2CC(C)OC(C)C2)cc1` (stereo not drawn), the Potency is reported as inconclusive: 23.8 µM [inhibitor, partial curve]. For `CCOC(=O)C1CCCN(C(=O)c2ccccc2OC(F)(F)F)CC1` (stereo not drawn), the max response, negative = inhibition was inactive: -5.27%. With `CN(Cc1ccccc1)C(=S)NC(=O)c1ccc(-c2ccccc2)cc1` the max response, negative = inhibition was inactive: -7.06%. With `Nc1nc(-c2c[nH]c3ccccc23)cs1` the Potency was inconclusive: 29.9 µM [inhibitor, single point]. For `S=c1[nH]nc(C2CCCCC2)n1/N=C/c1ccccc1Cl`, the Potency was active: 13.4 µM. `N#Cc1c(/N=C/c2ccc(Br)s2)sc2c1CCC2` was tested, and the Potency was inconclusive: 26.7 µM [inhibitor, partial curve]. In the case of `Cc1ccc(C)c(NC(=S)c2nc3ccccc3s2)c1`, the Potency is reported as active: 8.44 µM. `Cc1nn(-c2ccccc2)c(C)c1/C=N\N1CCN(c2ccc(Cl)cc2)CC1` was tested, and the max response, negative = inhibition was inactive: -6.46%. With `COc1ccc(C(=O)NC(=S)NNC(=O)COc2ccccc2)cc1` the Potency was inconclusive: 26.7 µM [inhibitor, partial curve]. `O=C(Nc1ccccc1)O/N=C/c1ccncc1` was tested, and the Potency was inconclusive: 29.9 µM [inhibitor, partial curve]. `Cc1cc(NC(=O)CSc2cc(Cl)ccc2Cl)n(-c2ccccc2)n1` was tested, and the max response, negative = inhibition was inactive: -2.17%. With `O=C(NCC1CCCO1)C(=O)N/N=C/c1ccc(OCc2ccccc2Cl)cc1` (stereo not drawn) the Potency was inconclusive: 29.9 µM [inhibitor, partial curve]. For `COc1cc(NS(=O)(=O)c2ccc(NC(=S)NC(=O)/C=C/c3ccco3)cc2)ncn1`, the Potency was active: 13.4 µM. `CC(=O)N1CCN(Cc2nc3cc(NC(=O)c4ccc(F)cc4)ccc3n2C)CC1` was tested, and the Potency was inconclusive: 33.6 µM [inhibitor, single point]. `Cc1ccc(C(=O)NC(C#N)=C(Cl)Cl)cc1` was tested, and the Potency was inconclusive: 21.2 µM [inhibitor, partial curve]. `O=c1c2c3c(sc2nc(NCCOCCO)n1Cc1ccco1)CCCCC3` was tested, and the max response, negative = inhibition was inactive: -8.51%. `Cc1cc(OC(C)C(=O)NCc2cccnc2)c2c(C)cc(=O)oc2c1` (stereo not drawn) was tested, and the Potency was active: 26.7 µM. In the case of `CC(C)CC(=O)N1CCN(C(=O)CCC2CCCC2)CC1`, the Potency is reported as active: 26.7 µM. In the case of `Cc1cc(C)c[n+](-c2[nH]c(=O)sc2/C=N/NC([S-])=Nc2ccccc2)c1`, the Potency is reported as inconclusive: 23.8 µM [inhibitor, partial curve]. In the case of `CC1(C)CC(=O)C(CSC(=O)c2ccccc2)C(=O)C1`, the Potency is reported as active: 9.47 µM. With `CC(Oc1ccc2cc(-c3ccccc3)c(=O)oc2c1)C(=O)NCC1CCC(C(=O)O)CC1` (stereo not drawn) the max response, negative = inhibition was inactive: -9.14%. For `C=CCn1c(SCC(=O)NC(=O)NCc2ccco2)nc2sc(C)c(C)c2c1=O`, the max response, negative = inhibition was inactive: -16.1%. `CC(=O)c1c(C)[nH]c(C(=O)CN(C)CC(=O)Nc2ccccc2Cl)c1C` was tested, and the max response, negative = inhibition was inactive: -5.37%. `CC(C(=O)NC1CCS(=O)(=O)C1)N1C(=O)/C(=C/c2ccc(Cl)cc2)SC1=S` (stereo not drawn) was tested, and the Potency was inconclusive: 26.7 µM [inhibitor, partial curve]. For `COc1cccc(-n2nnnc2SCC(=O)NCCc2ccc(OC)c(OC)c2)c1`, the Potency was inconclusive: 21.2 µM [inhibitor, partial curve]. In the case of `CCSc1nc(-c2ccccc2)c(-c2ccccc2)n1CC(O)CO` (stereo not drawn), the max response, negative = inhibition is reported as inactive: -8.44%. In the case of `Cc1ccc(OCC(=O)NC(=S)Nc2ccc(S(=O)(=O)Nc3cc(C)on3)cc2)c(Br)c1`, the Potency is reported as inconclusive: 23.8 µM [inhibitor, single point]. For `Cc1cc(C(=O)Nc2ccc(Nc3ccccc3)cc2)ccc1[N+](=O)[O-]`, the Potency was active: 3.36 µM. With `CCOc1ccc(-n2c(N)c(C(=O)NCc3ccco3)c3nc4ccccc4nc32)cc1` the Potency was inconclusive: 26.7 µM [inhibitor, partial curve]. With `COc1cc(CN2CCCN(C)CC2)cc([N+](=O)[O-])c1O` the Potency was inconclusive: 21.2 µM [inhibitor, partial curve]. In the case of `COc1ccc(Nc2nc3ccccc3nc2NS(=O)(=O)c2cccs2)cc1`, the Potency is reported as inconclusive: 29.9 µM [inhibitor, single point]. In the case of `COc1cccc(-c2nnc(SCC(=O)N3CCOCC3)o2)c1`, the Potency is reported as active: 23.8 µM. With `O=[N+]([O-])c1cc2c(cc1/C=N/n1c(-c3ccccc3)n[nH]c1=S)OCO2` the Potency was inconclusive: 23.8 µM [inhibitor, partial curve]. With `CCOc1ccc(/C=C2\SC(=S)N(CCC(=O)Nc3ccccc3C(=O)O)C2=O)cc1` the Potency was active: 23.8 µM. For `CCCNC(=O)NS(=O)(=O)c1cnccc1Sc1ccc(Cl)c(Cl)c1`, the Potency was inconclusive: 11.9 µM [inhibitor, partial curve]. With `O=C(CCCOc1ccc(Cl)cc1Cl)n1nnc2ccccc21` the Potency was active: 8.44 µM. In the case of `COc1ccc(-c2cc(C(=O)N/N=C/c3ccc(OC)c(COCC(F)(F)C(F)F)c3)c3ccccc3n2)c(OC)c1`, the Potency is reported as active: 2.99 µM. For `COc1cccc(-c2nc(CCl)cs2)c1`, the max response, negative = inhibition was inactive: -15.2%. `Cc1ccc(/C=C/C(=O)N2CCN(S(=O)(=O)/C=C/c3ccccc3)CC2)o1` was tested, and the max response, negative = inhibition was inactive: -4.44%. In the case of `C/C(=N\NC(=O)c1csc(C)c1C)c1ccco1`, the max response, negative = inhibition is reported as inactive: -0.659%. With `CCCc1nn(C)c2c1C(c1cccnc1)C(C#N)=C(N)O2` (stereo not drawn) the Potency was inconclusive: 29.9 µM [inhibitor, single point]. With `Cc1cc(Nc2cccc(C)c2C)n2nc(C)nc2n1` the max response, negative = inhibition was inconclusive: -31.1% [inhibitor]. With `COC(=O)c1ccc(C2/C(=C(/O)c3ccc4c(c3)CC(C)O4)C(=O)C(=O)N2Cc2cccnc2)cc1` (stereo not drawn) the max response, negative = inhibition was inactive: -11.7%. For `Cn1nc(-c2ccccc2)cc1NS(=O)(=O)c1ccc(C#N)cc1`, the max response, negative = inhibition was inactive: 2.61%. For `COc1cc(/C=C(\C#N)C(N)=O)ccc1OS(=O)(=O)c1ccc(C)cc1`, the Potency was inconclusive: 29.9 µM [inhibitor, partial curve]. With `O=C(Cn1c(-c2ccccc2)c[n+]2ccsc12)c1ccc([N+](=O)[O-])cc1` the Potency was active: 29.9 µM. For `COc1ccc(NS(=O)(=O)c2ccc3oc(=S)[nH]c3c2)cc1`, the Potency was inconclusive: 29.9 µM [inhibitor, partial curve]. For `Cc1ccc(CN(C)c2ccc(S(=O)(=O)N3CCCC3)cn2)cc1`, the Potency was inconclusive: 37.7 µM [inhibitor, single point]. With `O=C(C=C=Nc1ccccc1)C(=O)N=C=Cc1ccccc1` the max response, negative = inhibition was inactive: -2.5%. With `Cc1c(C(N)=O)c(-c2ccccc2)nn1-c1ccccc1` the max response, negative = inhibition was inactive: 6.39%. For `CCOC(=O)c1cc(CC)sc1N1C(=O)CC(Sc2ccccc2C(=O)O)C1=O` (stereo not drawn), the Potency was inconclusive: 26.7 µM [inhibitor, single point]. In the case of `CN(C)S(=O)(=O)N1CCC(Oc2ccc(C(=O)NC3CCCCC3)cc2)CC1`, the max response, negative = inhibition is reported as inactive: -12.8%. With `O=C(Oc1oc(-c2ccco2)nc1C=Nc1ccc(Cl)cc1)c1ccco1` the Potency was inconclusive: 1.5 µM [inhibitor, partial curve]. For `CCCc1[nH]nc2c1C(c1ccccc1OCC)C(C#N)=C(N)O2` (stereo not drawn), the Potency was inconclusive: 21.2 µM [inhibitor, partial curve]. In the case of `Cc1cc2cc(CN(Cc3cccs3)C(=S)NCc3ccco3)c(=O)[nH]c2cc1C`, the Potency is reported as inconclusive: 29.9 µM [inhibitor, partial curve]. For `COc1ccc2nc(/N=C/c3cccc(OC)c3O)sc2c1`, the Potency was inconclusive: 29.9 µM [inhibitor, partial curve]. In the case of `O=C(OCc1nnc(-c2ccccc2)o1)c1ccccc1`, the Potency is reported as inconclusive: 37.7 µM [inhibitor, single point]. `O=C(C[n+]1ccc(-c2cc(C(=O)Nc3cccc(C(F)(F)F)c3)c3ccccc3n2)cc1)c1cccc([N+](=O)[O-])c1` was tested, and the Potency was inconclusive: 29.9 µM [inhibitor, single point]. With `N#CCC(=O)N1CCN(Cc2ccc3c(c2)OCO3)CC1` the max response, negative = inhibition was inactive: -10.1%. `COc1ccc(Nc2nnc(SCc3cc(=O)n4ccsc4n3)s2)cc1` was tested, and the Potency was inconclusive: 26.7 µM [inhibitor, partial curve]. In the case of `C/C(=N\NC(=O)c1ccc(Br)cc1)C1C(=O)c2ccccc2C1=O`, the Potency is reported as inconclusive: 29.9 µM [inhibitor, single point]. In the case of `CCCCn1c(-c2nn(C)cc2Cl)n[nH]c1=S`, the max response, negative = inhibition is reported as inactive: -12%. `Cc1cc(C)n2nc(CC#N)c(C#N)c2n1` was tested, and the Potency was inconclusive: 21.2 µM [inhibitor, single point]. `COCCN(C(=O)CCCc1nc2ccccc2s1)c1c(N)n(CC(C)C)c(=O)[nH]c1=O` was tested, and the Potency was active: 23.8 µM. For `S=c1[nH]c(-c2cccs2)cn1-c1ccccc1`, the Potency was inconclusive: 26.7 µM [inhibitor, partial curve]. In the case of `Cc1ccccc1COc1ccc(-c2nnn(CC(=O)O)n2)cc1`, the Potency is reported as inconclusive: 15 µM [inhibitor, partial curve]. `O=C(NC(=S)Nc1ccc(Cl)c(C(=O)O)c1)c1cccc(COc2ccccc2)c1` was tested, and the Potency was inconclusive: 29.9 µM [inhibitor, single point].
